Data reported in PMC6514849.
Results are given in words; binding and its absence hold for the method and conditions named. In cells and extracts the contact can be indirect. Here binding means that the protein was enriched with, or labelled near, the bait; the list need not be complete.

Amino acid sequences for entries named in this document (tags omitted). Residues count along the entry.
UniProt P04792: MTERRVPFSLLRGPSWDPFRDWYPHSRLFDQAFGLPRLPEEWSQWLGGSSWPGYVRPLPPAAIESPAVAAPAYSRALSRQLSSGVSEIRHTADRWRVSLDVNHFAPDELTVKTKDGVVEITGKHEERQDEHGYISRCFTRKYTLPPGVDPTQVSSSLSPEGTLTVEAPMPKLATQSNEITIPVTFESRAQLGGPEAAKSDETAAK
UniProt P31040, residues 43-664: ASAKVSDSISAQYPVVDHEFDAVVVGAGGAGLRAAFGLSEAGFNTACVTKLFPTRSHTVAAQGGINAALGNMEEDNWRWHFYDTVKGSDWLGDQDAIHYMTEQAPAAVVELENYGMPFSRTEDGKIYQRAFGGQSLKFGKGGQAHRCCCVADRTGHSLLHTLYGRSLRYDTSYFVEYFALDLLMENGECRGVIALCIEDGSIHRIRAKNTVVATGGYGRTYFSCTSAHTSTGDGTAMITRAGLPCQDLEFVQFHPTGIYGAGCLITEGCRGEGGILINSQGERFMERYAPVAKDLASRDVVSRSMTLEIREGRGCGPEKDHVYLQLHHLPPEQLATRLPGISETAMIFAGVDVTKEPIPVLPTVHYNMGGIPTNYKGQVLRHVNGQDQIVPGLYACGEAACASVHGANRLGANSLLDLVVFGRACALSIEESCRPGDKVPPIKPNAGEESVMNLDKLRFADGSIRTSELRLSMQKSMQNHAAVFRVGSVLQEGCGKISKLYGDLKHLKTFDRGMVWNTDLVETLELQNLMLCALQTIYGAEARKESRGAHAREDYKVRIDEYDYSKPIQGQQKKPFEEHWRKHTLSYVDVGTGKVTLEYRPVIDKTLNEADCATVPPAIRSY
UniProt O95573: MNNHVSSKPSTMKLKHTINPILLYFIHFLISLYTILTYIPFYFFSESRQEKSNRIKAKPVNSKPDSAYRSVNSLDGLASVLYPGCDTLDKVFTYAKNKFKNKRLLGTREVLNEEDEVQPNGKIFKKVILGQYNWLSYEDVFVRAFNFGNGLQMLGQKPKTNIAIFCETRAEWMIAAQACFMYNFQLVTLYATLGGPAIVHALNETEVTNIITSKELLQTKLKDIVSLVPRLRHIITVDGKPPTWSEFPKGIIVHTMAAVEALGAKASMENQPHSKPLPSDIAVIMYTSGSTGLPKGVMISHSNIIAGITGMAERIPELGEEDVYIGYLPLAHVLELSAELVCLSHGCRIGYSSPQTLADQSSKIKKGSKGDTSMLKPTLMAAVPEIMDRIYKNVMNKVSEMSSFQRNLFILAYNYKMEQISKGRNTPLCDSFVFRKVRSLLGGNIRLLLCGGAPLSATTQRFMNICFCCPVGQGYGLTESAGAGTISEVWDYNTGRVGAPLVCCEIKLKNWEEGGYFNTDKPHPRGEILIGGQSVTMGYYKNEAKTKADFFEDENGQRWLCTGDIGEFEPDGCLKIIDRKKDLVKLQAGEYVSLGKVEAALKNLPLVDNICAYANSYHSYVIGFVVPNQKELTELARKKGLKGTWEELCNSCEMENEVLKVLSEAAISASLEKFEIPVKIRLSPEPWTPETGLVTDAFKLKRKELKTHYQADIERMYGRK
UniProt P17066: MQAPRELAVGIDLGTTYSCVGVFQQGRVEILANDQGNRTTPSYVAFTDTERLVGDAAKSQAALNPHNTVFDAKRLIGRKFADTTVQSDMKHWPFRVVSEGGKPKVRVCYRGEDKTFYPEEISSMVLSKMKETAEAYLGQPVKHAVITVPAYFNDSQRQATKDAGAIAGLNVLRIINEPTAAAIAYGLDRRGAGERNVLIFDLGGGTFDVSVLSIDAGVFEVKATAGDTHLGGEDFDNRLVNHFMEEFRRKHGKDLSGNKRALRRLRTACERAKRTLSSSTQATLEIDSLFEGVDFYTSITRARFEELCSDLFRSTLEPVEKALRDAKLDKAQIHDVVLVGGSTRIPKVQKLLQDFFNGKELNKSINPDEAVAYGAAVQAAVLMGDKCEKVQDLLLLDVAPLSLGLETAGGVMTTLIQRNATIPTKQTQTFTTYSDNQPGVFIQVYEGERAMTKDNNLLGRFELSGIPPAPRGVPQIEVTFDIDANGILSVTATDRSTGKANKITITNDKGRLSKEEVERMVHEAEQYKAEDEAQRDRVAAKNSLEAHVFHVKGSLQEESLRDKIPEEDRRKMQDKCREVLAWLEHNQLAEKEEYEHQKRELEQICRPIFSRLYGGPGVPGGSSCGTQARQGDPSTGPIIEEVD

T1: PDZ binding kinase (PBK), endogenous in C4-2 cells (human (endogenous in C4-2)) (UniProt Q96KB5)
T1 sequence: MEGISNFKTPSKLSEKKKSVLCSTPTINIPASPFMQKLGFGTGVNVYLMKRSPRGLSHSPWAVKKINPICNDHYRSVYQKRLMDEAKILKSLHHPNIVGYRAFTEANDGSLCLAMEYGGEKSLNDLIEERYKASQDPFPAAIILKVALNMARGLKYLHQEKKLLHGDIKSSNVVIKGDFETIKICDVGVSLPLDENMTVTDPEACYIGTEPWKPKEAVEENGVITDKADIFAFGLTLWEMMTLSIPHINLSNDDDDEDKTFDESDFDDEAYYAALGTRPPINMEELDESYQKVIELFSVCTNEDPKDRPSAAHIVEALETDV


What follows are molecules tested against T1, PDZ binding kinase (PBK), endogenous in C4-2 cells (human (endogenous in C4-2)) (assay: affinity purification with mass spectrometry; RIME (rapid immunoprecipitation mass spectrometry) on C4-2 cells with a PBK antibody (Novus); filtered using IgG RIME).

Molecule	binding
HSPB1 (from UniProt P04792 1-205)	binds
SDHA (from UniProt P31040 43-664)	binds
ADT3 (protein, UniProt P12236 1-298) MTEQAISFAKDFLAGGIAAAISKTAVAPIERVKLLLQVQHASKQIAADKQYKGIVDCIVRIPKEQGVLSFWRGNLANVIRYFPTQALNFAFKDKYKQIFLGGVDKHTQFWRYFAGNLASGGAAGATSLCFVYPLDFARTRLAADVGKSGTEREFRGLGDCLVKITKSDGIRGLYQGFSVSVQGIIIYRAAYFGVYDTAKGMLPDPKNTHIVVSWMIAQTVTAVAGVVSYPFDTVRRRMMMQSGRKGADIMYTGTVDCWRKIFRDEGGKAFFKGAWSNVLRGMGGAFVLVLYDELKKVI	binds
SCO1 (protein, UniProt O75880 68-301) STARPPPPWSQKGPGDSTRPSKPGPVSWKSLAITFAIGGALLAGMKHVKKEKAEKLEKERQRHIGKPLLGGPFSLTTHTGERKTDKDYLGQWLLIYFGFTHCPDVCPEELEKMIQVVDEIDSITTLPDLTPLFISIDPERDTKEAIANYVKEFSPKLVGLTGTREEVDQVARAYRVYYSPGPKDEDEDYIVDHTIIMYLIGPDGEFLDYFGQNKRKGEIAASIATHMRPYRKKS	binds

The next lines start with the values.

binding	Molecule
binds	ACSL3 (from UniProt O95573 1-720)
binds	ATPB (from UniProt P06576 48-529)
binds	HSP76 (from UniProt P17066 1-643)
binds	SCO2 (protein, UniProt O43819 42-266) GPAETGGQGQPQGPGLRTRLLITGLFGAGLGGAWLALRAEKERLQQQKRTEALRQAAVGQGDFHLLDHRGRARCKADFRGQWVLMYFGFTHCPDICPDELEKLVQVVRQLEAEPGLPPVQPVFITVDPERDDVEAMARYVQDFHPRLLGLTGSTKQVAQASHSYRVYYNAGPKDEDQDYIVDHSIAIYLLNPDGLFTDYYGRSRSAEQISDSVRRHMAAFRSVLS
